Data source: PubChem BioAssay AID602196 (INSERM, 2012)
Assay: 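Knock-downs that protect lung cancer cells from cisplatin or sensitise them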. Cells: human A549 lung cancer cells. Knock-down reagent: siRNA pair against human genes. Duration: 48 h transfection before cisplatin; time from cisplatin to read-out not stated. Challenge: cisplatin at a dose killing half of control-siRNA cells; exact dose and duration not given. Detection: 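Shift in cisplatin death relative to control siRNA, from -50 (all cells die) to +50 (no cells die); siRNAs harmful on their own scored 0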. Reading the numbers: two-siRNA summed score (-2 to +2): higher = both siRNAs protect from cisplatin killing; -2 means both sensitise. Rule for the call: 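siRNAs harmful alone (LDH or WST-1) get 0; others get +1 for less and -1 for more cisplatin killing; genes are active when the two siRNAs give the same sign, summing to ±2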. Meaning of the calls: active = both siRNAs shift cisplatin killing the same way; inactive = no consistent shift, or siRNA harmful alone.
The whole screen tested about 23,000 reagents; below is a part drawn at random. Over the whole deposit, 455 (2%) were called active. 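Active includes both protection and sensitisation; some change values fall well beyond the stated -50 to +50 range.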 Not all columns of the deposit are shown. Not given: the amount of reagent.

| gene knocked down | two-siRNA summed score (-2 to +2) | outcome |
| --- | --- | --- |
| LOC255798 | 0 | inactive |
| H2AC6 (H2A clustered histone 6) | 0 | inactive |
| LINC00857 (long independently transcribed non-coding RNA 857) | 0 | inactive |
| LINC02396 (long independently transcribed non-coding RNA 2396) | 1 | inactive |
| EIF2B2 (eukaryotic translation initiation factor 2B subunit beta) | -1 | inactive |
| FYRD1 (FYRN and FYRC domains INO80 complex interactor 1) | 0 | inactive |
| PLXNA2 (plexin A2) | 0 | inactive |
| SOFU1 (sperm-oocyte fusion factor 1) | 1 | inactive |
| HHIPL2 (HHIP like 2) | 0 | inactive |
| CEACAM4 (CEA cell adhesion molecule 4) | 2 | active |
| FEM1C (fem-1 homolog C) | -1 | inactive |
| RAD51D (RAD51 paralog D) | 0 | inactive |
| MATR3 (matrin 3) | 1 | inactive |
| CD24 (CD24 molecule) | 0 | inactive |
| MED26 (mediator complex subunit 26) | -1 | inactive |
| SLC36A3 | 0 | inactive |
| LOC388698 | 0 | inactive |
| IMP4 (IMP U3 small nucleolar ribonucleoprotein 4) | 0 | inactive |
| LOC441232 | 0 | inactive |
| KCNE1 | 0 | inactive |
| LOC392221 | 0 | inactive |
| SLC25A43 | -1 | inactive |
| NR2F6 (nuclear receptor subfamily 2 group F member 6) | 0 | inactive |

Part of the list above, set out differently:
LINC02396 (long independently transcribed non-coding RNA 2396)
- two-siRNA summed score (-2 to +2): 1
- outcome: inactive

EIF2B2 (eukaryotic translation initiation factor 2B subunit beta)
- two-siRNA summed score (-2 to +2): -1
- outcome: inactive
